Laboratory results reported in patent US20100047230A1 (HELLENIC PASTEUR INSTITUTE, published 2010).
Results are given in words; binding and its absence hold for the method and conditions named. Some binding calls cover weakened binding; strength is not graded here.

Molecular target: recombinant Her2/neu extracellular domain (ECD) expressed in yeast Pichia pastoris (human) (UniProt P04626)
Assay: ELISA on coated Her2-ECD (10 µg/ml)

binding: binds
B1: Fab63 (Fab, V domains shown)
VH: EVQLLEWGPGLVKPSGTLSLTCAVSGGSIRDSNWWGWVRQPPGKGLEWIGEIYHSGTTNYNPSLKSRVTISVDKSKNQFSLNLSSVTAADTAVYYCAREDCSYGSCYFDYWGQGTLVTVSS
VL: ELTLTQSPSSLSASLGDRVTIRCRASQSISAALNWYQQKPGKAPKLLIHDVSTLQSGVPARFSGGGSETDFTLTISSLQPEDFATYYCQQSYRVPLTFGGGTRLEIK
notes: Fully human soluble Fab made in E. coli from pComb3H; Heavy chain is an Fd of the gamma1 isotype (VH-CH1), light chain is kappa (VL of the K subgroup, with Ckappa); also called human Fab 63; clone 63
